Data published in US20120329721A1, “MEANS FOR PREVENTING AND TREATING CELLULAR DEATH AND THEIR BIOLOGICAL APPLICATIONS” (CHIESI FARMACEUTICI S.P.A., priority 2003, published 2012).
At least one compound was matched to its structure with a doubt left. Residues, ends and D or L forms follow the SMILES beside them. *: point of attachment. Cbz = O=C(OCc1ccccc1)*

Columns and labels:
[1] = system: primary cortical neurons; assay type: cell-based; details: SD model; compound added at the start of SD at the concentration of column '[ ], μM' (first concentration/target where two are printed)
[2] = system: Bax α; assay: Bax cleavage (p22 to p18) in SD-neurons by Western blotting; assay type: cell-based, mouse; details: 24 hr-SD, Western Blotting Δ21 antibody; VDVAD/QVDOPH 100 μM, ALLN/ALLM 25 μM, E64d 25-50 μM, lactacystin 1-10 μM, epoxomycin 10 μM
Description: Neurons were lysed at RT in 25 mM Tris-HCl pH 7.4, 25 mM NaCl, 5 mM EDTA, 1% Triton X-100 supplemented by complete protease inhibitors cocktail (Roche). Protein concentration was determined using the Bio-Rad protein assay kit. Proteins (30 μg for caspase-2; 10 μg for Bax) were separated on 12.5% polyacrylamide gels and transferred to PVDF membranes (Amersham). […] The monoclonal anti-mouse caspase-2antibody (11B4, Alexis Biochemicals) was used at a 1:1000 dilution; polyclonal antibody (Δ21, Santa Cruz Biotechnology) raised against mouse Bax α deleted for the carboxy terminal 21 amino acids was used at a 1:200 dilution; polyclonal antibody (N20, Santa Cruz Biotechnology) raised against the amino terminus of Bax α (recognizing residues 11 to 30) was used at a 1:1000 dilution. Actin (42 kDa; Sigma; 1:5000) is used as an equal loading control. Immunoblotting of heat-shock protein 60 (HSP60) with a mouse monoclonal anti-HSP (Sigma; 1:400) was used to check the purity of the heavy membrane fraction enriched in mitochondria.

| Compound | Survival [1] | Bax cleavage (p18 Bax) in SD-neurons [2] |
| --- | --- | --- |
| CC[C@H](C)[C@H](NC(=O)[C@H]([C@@H](C)CC)N(C)C(C)=O)C(=O)N[C@H](C(=O)N[C@@H](CC(C)C)C(=O)[C@@]1(C)CO1)[C@@H](C)O [Epoxomicin] | No | p18 Bax appears to be stabilized |
| CC(C)[C@H](NC(=O)OCc1ccccc1)C(=O)N[C@H](C=O)Cc1ccccc1 [MDL-28170] (Cbz-Val-Phe-aldehyde) | No | – |
| CO[C@H]1C[C@@H]2CC[C@@H](C)[C@@](O)(O2)C(=O)C(=O)N2CCCC[C@H]2C(=O)O[C@H]([C@H](C)C[C@@H]2CC[C@@H](O)[C@H](OC)C2)CC(=O)[C@H](C)/C=C(\C)[C@@H](O)[C@@H](OC)C(=O)[C@H](C)C[C@H](C)/C=C/C=C/C=C/1C [Rapamycin] | No | – |
| Oc1c2ccccc2c2c3c(cccc13)N=N2 [SP 600125] | No | – |
